Experimental data from PubChem BioAssay AID2551 (National Center for Advancing Translational Sciences (NCATS), 2010).
Screen size: about 310,000 compounds; about 17,000 (5.5%) were called active. The shares of active, inactive and inconclusive entries below differ from those in the screen. Calls follow the shape of the dose curve; as a rule, active = well fitted inhibition curve with a large enough effect; inconclusive = small, poorly fitted or top-dose-only effect, or effect the other way; inactive = no such curve, though single readings can be large or run the other way. Where the call is inconclusive, the potency comes from a doubtful curve fit.
Also: nearly all actives have a fitted effect of over 60% in size.
Potency is read from the fitted curve at half-maximal effect.

Protein sequences, listed by entry. Tags and fused reporters are not part of them. Lines headed by an entry give the natural chain unless they say otherwise; changes in a name come on top.
UniProt P51450: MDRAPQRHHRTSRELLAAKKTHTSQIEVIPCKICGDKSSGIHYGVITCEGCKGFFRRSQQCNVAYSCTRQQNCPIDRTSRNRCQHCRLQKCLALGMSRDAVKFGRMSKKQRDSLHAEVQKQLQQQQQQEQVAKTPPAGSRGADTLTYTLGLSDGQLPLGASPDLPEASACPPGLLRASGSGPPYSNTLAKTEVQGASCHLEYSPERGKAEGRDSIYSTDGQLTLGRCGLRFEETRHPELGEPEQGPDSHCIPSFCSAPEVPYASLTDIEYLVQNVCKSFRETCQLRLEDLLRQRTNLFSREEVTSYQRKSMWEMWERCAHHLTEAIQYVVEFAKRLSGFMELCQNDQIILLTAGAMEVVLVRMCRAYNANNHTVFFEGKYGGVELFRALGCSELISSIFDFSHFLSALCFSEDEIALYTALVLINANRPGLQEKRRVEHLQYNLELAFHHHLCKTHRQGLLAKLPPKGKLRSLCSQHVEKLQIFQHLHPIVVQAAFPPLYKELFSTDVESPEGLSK

The compounds below were run against Nuclear receptor ROR-gamma (Mus musculus) (UniProt P51450) (assay: qHTS for inhibitors of ROR gamma transcriptional activity). Conditions: Drosophila S2 Gal4-RORgamma UAS-luciferase reporter, 20 h; series mostly up to 53.6 µM.
Outline: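 Stable Schneider cell line, Gal4 DNA-binding domain fused to ROR gamma, UAS-luciferase. Cmpd 1 hr RT → CuSO4 700 uM final → 20 hr RT → luciferase reagent 10 min → luminescence.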
With `COc1cc(/C=C/c2ccc3cccc(O)c3n2)cc(Br)c1OC` the Potency was active: 1.26 µM. With `C=CCOc1c(Cl)cc(C(=S)N2CCCC2)cc1OCC` the Potency was active: 12.6 µM. For `COc1ccccc1N1C(=O)CC(Sc2nccc(C)n2)C1=O` (stereo unspecified), the Potency was active: 11.2 µM. For `CCn1c(C(C)NC(C)=O)nc2ccccc21` (stereo unspecified), the Potency was “inactive”. `CCOC(=O)N1CCC(NC(=O)C2=C(C)C(=O)OC23CCC(C)CC3)CC1` (stereo unspecified) was tested, and the Potency was inconclusive: 0.112 µM [activator, full curve, poor fit]. `CCCOc1ccc(/C=N/NC(=O)c2ccc3c(c2)OCO3)c(OCCC)c1` was tested, and the Potency was inconclusive: 17.8 µM [inhibitor, single point]. With `CCOc1cc(/C=C(\C#N)C(=O)Nc2ccccn2)ccc1O` the Potency was inconclusive: 4.47 µM [activator, full curve, poor fit]. For `COc1ccccc1NC(=O)c1coc(=O)c(Br)c1`, the Potency was “inactive”. With `CCCc1ccc(-c2csc(NC(=O)Cc3cccs3)n2)cc1` the Potency was active: 12.6 µM. With `O=C(c1cc(COc2ccc(F)cc2Cl)on1)N1CCc2sccc2C1` the Potency was inconclusive: 14.1 µM [activator, partial curve, poor fit]. `COc1ccccc1C(=O)COC(=O)c1ccc(N(C)C)cc1` was tested, and the Potency was inconclusive: 1.58 µM [activator, partial curve]. With `COc1ccc(/C=C2\SC(=S)N(CCC(=O)NCCCN3CCOCC3)C2=O)cc1` the Potency was “inactive”. `CC(C)(C)c1ccc(C(=O)O/N=C(\N)c2ccccc2)cc1` was tested, and the Potency was active: 1.12 µM. `CC1CCCCN1c1nc(-c2ccncc2)nc2ccccc12` (stereo unspecified) was tested, and the Potency was active: 11.2 µM. With `CCOc1ccc(S(=O)(=O)NCc2ccc(Cl)cc2)c2cccnc12` the Potency was inconclusive: 15.8 µM [inhibitor, single point]. `CCCNS(=O)(=O)c1ccc(OCC(=O)NCc2ccc3c(c2)OCO3)cc1` was tested, and the Potency was inconclusive: 5.62 µM [inhibitor, single point]. For `CCOC(=O)c1c(NC(=O)CSc2ccccc2C(=O)O)sc(C)c1C`, the Potency was “inactive”. In the case of `O=C(O)/C=C\C(=O)NCc1cccnc1`, the Potency is reported as inconclusive: 35.5 µM [inhibitor, single point]. `CCCOC(=O)C1=C(C)NC2=C(C(=O)CCC2)C1c1cccc(OC)c1OC` (stereo unspecified) was tested, and the Potency was inconclusive: 20 µM [activator, partial curve]. In the case of `COc1ccc2ncc(S(=O)(=O)c3ccccc3)c(N3CCC4(CC3)OCCO4)c2c1`, the Potency is reported as inconclusive: 7.08 µM [activator, full curve]. With `CCOc1ccc(CCNC(=O)c2cc3ccccn3n2)cc1OCC` the Potency was inconclusive: 5.01 µM [activator, partial curve, poor fit].
